Assay results reported in doi:10.1101/2022.09.09.507380.
Read-outs that look alike come from different tables or passages of the source. Results are given in words; binding and its absence hold for the method and conditions named. For some of these results: In cells and extracts the contact can be indirect. Some entries that bind do so weakly or less than the wild type. For some of these results: Sequences can lack the tags named with a protein. Each block holds one molecule with its values, some of them ahead of it.

Amino acid sequences for entries named in this document (tags omitted).
UniProt P62141: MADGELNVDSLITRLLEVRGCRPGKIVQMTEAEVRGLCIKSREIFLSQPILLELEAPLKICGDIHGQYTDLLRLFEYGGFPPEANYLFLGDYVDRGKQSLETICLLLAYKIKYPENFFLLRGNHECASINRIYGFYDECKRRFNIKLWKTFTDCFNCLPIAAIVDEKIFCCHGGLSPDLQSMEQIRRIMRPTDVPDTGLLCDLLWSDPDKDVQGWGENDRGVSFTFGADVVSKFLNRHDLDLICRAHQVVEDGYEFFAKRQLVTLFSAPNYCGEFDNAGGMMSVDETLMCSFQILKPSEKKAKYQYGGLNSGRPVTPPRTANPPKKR
UniProt O75901: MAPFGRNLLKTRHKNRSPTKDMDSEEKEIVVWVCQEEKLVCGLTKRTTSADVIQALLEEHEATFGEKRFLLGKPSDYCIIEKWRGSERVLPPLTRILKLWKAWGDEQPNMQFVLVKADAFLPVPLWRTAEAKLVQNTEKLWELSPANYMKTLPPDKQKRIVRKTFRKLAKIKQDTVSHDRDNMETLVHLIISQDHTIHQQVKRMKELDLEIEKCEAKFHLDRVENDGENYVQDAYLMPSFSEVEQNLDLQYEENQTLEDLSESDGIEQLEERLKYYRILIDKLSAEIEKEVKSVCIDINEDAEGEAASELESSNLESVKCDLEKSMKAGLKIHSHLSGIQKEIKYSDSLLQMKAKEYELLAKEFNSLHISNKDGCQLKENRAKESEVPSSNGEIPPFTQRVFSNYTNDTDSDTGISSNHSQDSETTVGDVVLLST
UniProt Q92624: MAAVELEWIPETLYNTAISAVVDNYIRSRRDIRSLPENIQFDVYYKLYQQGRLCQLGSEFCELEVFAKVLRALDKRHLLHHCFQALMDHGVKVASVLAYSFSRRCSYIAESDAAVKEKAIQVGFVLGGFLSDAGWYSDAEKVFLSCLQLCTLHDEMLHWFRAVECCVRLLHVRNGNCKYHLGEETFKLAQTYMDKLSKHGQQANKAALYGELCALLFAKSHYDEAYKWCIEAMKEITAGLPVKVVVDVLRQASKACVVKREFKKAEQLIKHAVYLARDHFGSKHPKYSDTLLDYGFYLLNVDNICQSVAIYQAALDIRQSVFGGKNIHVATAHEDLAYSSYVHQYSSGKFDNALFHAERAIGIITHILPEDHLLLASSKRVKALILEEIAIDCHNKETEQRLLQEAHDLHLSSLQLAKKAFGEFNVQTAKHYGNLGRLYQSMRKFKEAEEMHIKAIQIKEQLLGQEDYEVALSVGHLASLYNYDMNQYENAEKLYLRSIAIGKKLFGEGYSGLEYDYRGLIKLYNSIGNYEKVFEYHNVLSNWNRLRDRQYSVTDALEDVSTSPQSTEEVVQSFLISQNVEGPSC
UniProt Q12972: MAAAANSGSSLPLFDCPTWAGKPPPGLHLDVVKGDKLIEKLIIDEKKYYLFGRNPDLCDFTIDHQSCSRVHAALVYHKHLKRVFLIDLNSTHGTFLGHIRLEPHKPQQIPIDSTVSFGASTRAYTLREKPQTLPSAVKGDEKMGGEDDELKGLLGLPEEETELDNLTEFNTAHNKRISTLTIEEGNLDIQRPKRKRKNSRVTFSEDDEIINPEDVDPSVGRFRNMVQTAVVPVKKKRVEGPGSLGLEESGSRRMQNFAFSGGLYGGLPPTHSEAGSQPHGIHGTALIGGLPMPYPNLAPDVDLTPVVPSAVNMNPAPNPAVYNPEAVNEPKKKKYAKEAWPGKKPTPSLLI

Columns and labels:
[1] = biological target: GFP-tagged c20orf27 (wild type) (UniProt Q9GZN8); experiment: co-IP
[2] = biological target: mCherry-NLS-LacR-PP1ɣ (human) (UniProt P36873); experiment: two-hybrid
[3] = biological target: GFP-tagged PP1β (HeLa/BAC cell line mPPP1CB-LAP) (mouse) (UniProt P62141); experiment: co-IP
[4] = biological target: GFP-tagged PP1ɣ (HeLa/BAC cell line hPPP1CC-LAP) (human) (UniProt P36873); experiment: co-IP
[5] = biological target: PP1γ fused to the N-terminal half of YFP (aa 1-154) (human) (UniProt P36873); experiment: split reporter
GFP-tagged RASSF7 = biological target: T1, GFP-tagged RASSF7 (UniProt Q02833); experiment: co-IP
T1 sequence: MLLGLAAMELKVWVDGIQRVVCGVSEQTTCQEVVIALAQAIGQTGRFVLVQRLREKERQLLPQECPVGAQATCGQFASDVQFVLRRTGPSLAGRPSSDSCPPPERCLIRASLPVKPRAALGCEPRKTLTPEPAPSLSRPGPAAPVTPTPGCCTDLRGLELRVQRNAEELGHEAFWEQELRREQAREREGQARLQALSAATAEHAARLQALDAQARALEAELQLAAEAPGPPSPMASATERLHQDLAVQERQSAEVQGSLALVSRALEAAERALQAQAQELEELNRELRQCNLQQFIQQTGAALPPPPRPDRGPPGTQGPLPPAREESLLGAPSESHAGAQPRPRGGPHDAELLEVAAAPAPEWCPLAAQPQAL

GFP-tagged RASSF9 = GFP-tagged RASSF9 (UniProt O75901); experiment: co-IP
[6] = biological target: GFP-tagged PP1β (HeLa/BAC cell line mPPP1CB-LAP) (mouse) (UniProt P62141); experiment: co-IP; remark: listed apart in the source
[7] = biological target: GFP-tagged PP1ɣ (HeLa/BAC cell line hPPP1CC-LAP) (human) (UniProt P36873); experiment: co-IP; remark: listed apart in the source

Molecule: APPBP2 (amyloid beta precursor protein binding protein 2) (from UniProt Q92624 1-585)
binding [1]: binds

Molecule: GFP-tagged c20orf27 (wild type) (from UniProt Q9GZN8 1-174)
binding [2]: binds

Molecule: NIPP1 (from UniProt Q12972 1-351)
binding [3]: binds | binding [4]: binds

Molecule: c20orf27 (wild type) fused to the C-terminal half of YFP (aa 155-238) (from UniProt Q9GZN8 1-174)
binding [5]: binds

B1: ASPP2 (protein, UniProt Q13625 1-1128)
chain: MMPMFLTVYLSNNEQHFTEVPVTPETICRDVVDLCKEPGESDCHLAEVWCGSERPVADNERMFDVLQRFGSQRNEVRFFLRHERPPGRDIVSGPRSQDPSLKRNGVKVPGEYRRKENGVNSPRMDLTLAELQEMASRQQQQIEAQQQLLATKEQRLKFLKQQDQRQQQQVAEQEKLKRLKEIAENQEAKLKKVRALKGHVEQKRLSNGKLVEEIEQMNNLFQQKQRELVLAVSKVEELTRQLEMLKNGRIDSHHDNQSAVAELDRLYKELQLRNKLNQEQNAKLQQQRECLNKRNSEVAVMDKRVNELRDRLWKKKAALQQKENLPVSSDGNLPQQAASAPSRVAAVGPYIQSSTMPRMPSRPELLVKPALPDGSLVIQASEGPMKIQTLPNMRSGAASQTKGSKIHPVGPDWSPSNADLFPSQGSASVPQSTGNALDQVDDGEVPLREKEKKVRPFSMFDAVDQSNAPPSFGTLRKNQSSEDILRDAQVANKNVAKVPPPVPTKPKQINLPYFGQTNQPPSDIKPDGSSQQLSTVVPSMGTKPKPAGQQPRVLLSPSIPSVGQDQTLSPGSKQESPPAAAVRPFTPQPSKDTLLPPFRKPQTVAASSIYSMYTQQQAPGKNFQQAVQSALTKTHTRGPHFSSVYGKPVIAAAQNQQQHPENIYSNSQGKPGSPEPETEPVSSVQENHENERIPRPLSPTKLLPFLSNPYRNQSDADLEALRKKLSNAPRPLKKRSSITEPEGPNGPNIQKLLYQRTTIAAMETISVPSYPSKSASVTASSESPVEIQNPYLHVEPEKEVVSLVPESLSPEDVGNASTENSDMPAPSPGLDYEPEGVPDNSPNLQNNPEEPNPEAPHVLDVYLEEYPPYPPPPYPSGEPEGPGEDSVSMRPPEITGQVSLPPGKRTNLRKTGSERIAHGMRVKFNPLALLLDSSLEGEFDLVQRIIYEVDDPSLPNDEGITALHNAVCAGHTEIVKFLVQFGVNVNAADSDGWTPLHCAASCNNVQVCKFLVESGAAVFAMTYSDMQTAADKCEEMEEGYTQCSQFLYGVQEKMGIMNKGVIYALWDYEPQNDDELPMKEGDCMTIIHREDEDEIEWWWARLNDKEGYVPRNLLGLYPRIKPRQRSLA
binding (GFP-tagged RASSF7): binds | binding (GFP-tagged RASSF9): binds

B2: SDS22 (protein, UniProt Q15435 1-360)
chain: MAAERGAGQQQSQEMMEVDRRVESEESGDEEGKKHSSGIVADLSEQSLKDGEERGEEDPEEEHELPVDMETINLDRDAEDVDLNHYRIGKIEGFEVLKKVKTLCLRQNLIKCIENLEELQSLRELDLYDNQIKKIENLEALTELEILDISFNLLRNIEGVDKLTRLKKLFLVNNKISKIENLSNLHQLQMLELGSNRIRAIENIDTLTNLESLFLGKNKITKLQNLDALTNLTVLSMQSNRLTKIEGLQNLVNLRELYLSHNGIEVIEGLENNNKLTMLDIASNRIKKIENISHLTELQEFWMNDNLLESWSDLDELKGARSLETVYLERNPLQKDPQYRRKVMLALPSVRQIDATFVRF
binding [6]: binds | binding [7]: binds

Continued, values first:

binding [2]: no binding
Molecule: GFP-tagged c20orf27 KAGA mutant (from UniProt Q9GZN8 1-174)

binding [5]: no binding
Molecule: c20orf27 KAGA mutant fused to the C-terminal half of YFP (aa 155-238) (from UniProt Q9GZN8 1-174)

binding [6]: binds | binding [7]: binds
B3: PNUTS (protein, UniProt Q96QC0 1-940)
chain: MGSGPIDPKELLKGLDSFLNRDGEVKSVDGISKIFSLMKEARKMVSRCTYLNILLQTRSPEILVKFIDVGGYKLLNNWLTYSKTTNNIPLLQQILLTLQHLPLTVDHLKQNNTAKLVKQLSKSSEDEELRKLASVLVSDWMAVIRSQSSTQPAEKDKKKRKDEGKSRTTLPERPLTEVKAETRAEEAPEKKREKPKSLRTTAPSHAKFRSTGLELETPSLVPVKKNASTVVVSDKYNLKPIPLKRQSNVAAPGDATPPAEKKYKPLNTTPNATKEIKVKIIPPQPMEGLGFLDALNSAPVPGIKIKKKKKVLSPTAAKPSPFEGKTSTEPSTAKPSSPEPAPPSEAMDADRPGTPVPPVEVPELMDTASLEPGALDAKPVESPGDPNQLTRKGRKRKSVTWPEEGKLREYFYFELDETERVNVNKIKDFGEAAKREILSDRHAFETARRLSHDNMEEKVPWVCPRPLVLPSPLVTPGSNSQERYIQAEREKGILQELFLNKESPHEPDPEPYEPIPPKLIPLDEECSMDETPYVETLEPGGSGGSPDGAGGSKLPPVLANLMGSMGAGKGPQGPGGGGINVQEILTSIMGSPNSHPSEELLKQPDYSDKIKQMLVPHGLLGPGPIANGFPPGGPGGPKGMQHFPPGPGGPMPGPHGGPGGPVGPRLLGPPPPPRGGDPFWDGPGDPMRGGPMRGGPGPGPGPYHRGRGGRGGNEPPPPPPPFRGARGGRSGGGPPNGRGGPGGGMVGGGGHRPHEGPGGGMGNSSGHRPHEGPGGGMGSGHRPHEGPGGSMGGGGGHRPHEGPGGGISGGSGHRPHEGPGGGMGAGGGHRPHEGPGGSMGGSGGHRPHEGPGHGGPHGHRPHDVPGHRGHDHRGPPPHEHRGHDGPGHGGGGHRGHDGGHSHGGDMSNRPVCRHFMMKGNCRYENNCAFYHPGVNGPPLP
